Test results from publication PMC7934584.
These are yes or no findings as the source states them, for the method shown. In cells and extracts the contact can be indirect. Some results given as binding are weak or reduced against the parent protein; the word gives no strength. Blank lines part the entries; values can stand above or below the molecule they belong to.

The chains behind the UniProt entries cited, without tags or fusion partners.
UniProt O95863: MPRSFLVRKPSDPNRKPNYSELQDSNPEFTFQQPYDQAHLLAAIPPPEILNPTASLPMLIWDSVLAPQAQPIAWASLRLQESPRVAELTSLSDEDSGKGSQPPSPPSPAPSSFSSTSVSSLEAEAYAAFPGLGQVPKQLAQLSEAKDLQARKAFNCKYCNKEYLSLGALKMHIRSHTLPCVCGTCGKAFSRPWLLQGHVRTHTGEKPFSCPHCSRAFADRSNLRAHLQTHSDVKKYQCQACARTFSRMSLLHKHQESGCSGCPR
UniProt P42568: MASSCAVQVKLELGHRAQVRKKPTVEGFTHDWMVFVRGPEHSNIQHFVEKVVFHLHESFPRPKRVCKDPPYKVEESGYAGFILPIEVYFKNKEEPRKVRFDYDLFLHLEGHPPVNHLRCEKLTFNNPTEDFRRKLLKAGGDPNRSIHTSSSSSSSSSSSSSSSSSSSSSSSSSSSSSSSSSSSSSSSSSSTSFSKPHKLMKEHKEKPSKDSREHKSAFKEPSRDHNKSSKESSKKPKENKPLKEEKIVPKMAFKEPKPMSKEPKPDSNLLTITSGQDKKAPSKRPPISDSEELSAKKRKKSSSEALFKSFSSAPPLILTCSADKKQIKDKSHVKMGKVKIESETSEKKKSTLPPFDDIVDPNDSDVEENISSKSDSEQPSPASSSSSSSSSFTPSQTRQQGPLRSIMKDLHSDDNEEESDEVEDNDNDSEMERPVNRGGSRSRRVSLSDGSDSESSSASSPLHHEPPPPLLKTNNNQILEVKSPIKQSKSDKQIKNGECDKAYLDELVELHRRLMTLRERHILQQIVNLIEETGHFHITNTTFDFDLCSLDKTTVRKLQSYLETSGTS
UniProt Q15672: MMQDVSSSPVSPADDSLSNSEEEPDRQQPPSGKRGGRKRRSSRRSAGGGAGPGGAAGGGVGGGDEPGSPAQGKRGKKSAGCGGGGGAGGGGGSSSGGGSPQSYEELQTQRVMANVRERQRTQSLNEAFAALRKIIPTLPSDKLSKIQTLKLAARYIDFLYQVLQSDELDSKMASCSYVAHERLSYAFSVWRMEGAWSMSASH

Tests used:
[1] = molecular target: HA-Snail (human (cDNA from MDA-MB-231 cells)) (UniProt O95863); assay: co-IP; reverse co-IP: FLAG-AF9 and HA-Snail (WT, dN ter, dM, dC ter) cotransfected into MDA-MB-231 cells; IP with antibody against HA; blot
[2] = molecular target: FLAG-AF9 (human (cDNA from HEK293T cells)) (UniProt P42568); assay: co-IP; HA-Snail and FLAG-AF9 (WT or Y78A) cotransfected into MDA-MB-231 cells; IP with antibody against FLAG; blot
[3] = molecular target: FLAG-AF9 (human (cDNA from HEK293T cells)) (UniProt P42568); assay: co-IP; MDA-MB-231-FLAG-AF9 OE cells; M2 FLAG beads precipitate the AF9-associated complex; blots for endogenous transcription factors

Molecule: FLAG-AF9 (from UniProt P42568 1-568)
binding [1]: binds

Molecule: HA-Snail (from UniProt O95863 1-264)
binding [2]: binds

Molecule: Snail (from UniProt O95863 1-264)
binding [3]: binds

B1: ZEB2 (protein, UniProt O60315 1-1214)
chain: MKQPIMADGPRCKRRKQANPRRKNVVNYDNVVDTGSETDEEDKLHIAEDDGIANPLDQETSPASVPNHESSPHVSQALLPREEEEDEIREGGVEHPWHNNEILQASVDGPEEMKEDYDTMGPEATIQTAINNGTVKNANCTSDFEEYFAKRKLEERDGHAVSIEEYLQRSDTAIIYPEAPEELSRLGTPEANGQEENDLPPGTPDAFAQLLTCPYCDRGYKRLTSLKEHIKYRHEKNEENFSCPLCSYTFAYRTQLERHMVTHKPGTDQHQMLTQGAGNRKFKCTECGKAFKYKHHLKEHLRIHSGEKPYECPNCKKRFSHSGSYSSHISSKKCIGLISVNGRMRNNIKTGSSPNSVSSSPTNSAITQLRNKLENGKPLSMSEQTGLLKIKTEPLDFNDYKVLMATHGFSGTSPFMNGGLGATSPLGVHPSAQSPMQHLGVGMEAPLLGFPTMNSNLSEVQKVLQIVDNTVSRQKMDCKAEEISKLKGYHMKDPCSQPEEQGVTSPNIPPVGLPVVSHNGATKSIIDYTLEKVNEAKACLQSLTTDSRRQISNIKKEKLRTLIDLVTDDKMIENHNISTPFSCQFCKESFPGPIPLHQHERYLCKMNEEIKAVLQPHENIVPNKAGVFVDNKALLLSSVLSEKGMTSPINPYKDHMSVLKAYYAMNMEPNSDELLKISIAVGLPQEFVKEWFEQRKVYQYSNSRSPSLERSSKPLAPNSNPPTKDSLLPRSPVKPMDSITSPSIAELHNSVTNCDPPLRLTKPSHFTNIKPVEKLDHSRSNTPSPLNLSSTSSKNSHSSSYTPNSFSSEELQAEPLDLSLPKQMKEPKSIIATKNKTKASSISLDHNSVSSSSENSDEPLNLTFIKKEFSNSNNLDNKSTNPVFSMNPFSAKPLYTALPPQSAFPPATFMPPVQTSIPGLRPYPGLDQMSFLPHMAYTYPTGAATFADMQQRRKYQRKQGFQGELLDGAQDYMSGLDDMTDSDSCLSRKKIKKTESGMYACDLCDKTFQKSSSLLRHKYEHTGKRPHQCQICKKAFKHKHHLIEHSRLHSGEKPYQCDKCGKRFSHSGSYSQHMNHRYSYCKREAEEREAAEREAREKGHLEPTELLMNRAYLQSITPQGYSDSEERESMPRDGESEKEHEKEGEDGYGKLGRQDGDEEFEEEEEESENKSMDTDPETIRDEEETGDHSMDDSSEDGKMETKSDHEEDNMEDGM
binding [3]: no binding

Continued, values first:

binding [3]: no binding
Molecule: Twist1 (from UniProt Q15672 1-202)

binding [3]: no binding
B2: Slug (protein, UniProt O43623 1-268)
chain: MPRSFLVKKHFNASKKPNYSELDTHTVIISPYLYESYSMPVIPQPEILSSGAYSPITVWTTAAPFHAQLPNGLSPLSGYSSSLGRVSPPPPSDTSSKDHSGSESPISDEEERLQSKLSDPHAIEAEKFQCNLCNKTYSTFSGLAKHKQLHCDAQSRKSFSCKYCDKEYVSLGALKMHIRTHTLPCVCKICGKAFSRPWLLQGHIRTHTGEKPFSCPHCNRAFADRSNLRAHLQTHSDVKKYQCKNCSKTFSRMSLLHKHEESGCCVAH

binding [3]: no binding
B3: Twist2 (protein, UniProt Q8WVJ9 1-160)
chain: MEEGSSSPVSPVDSLGTSEEELERQPKRFGRKRRYSKKSSEDGSPTPGKRGKKGSPSAQSFEELQSQRILANVRERQRTQSLNEAFAALRKIIPTLPSDKLSKIQTLKLAARYIDFLYQVLQSDEMDNKMTSCSYVAHERLSYAFSVWRMEGAWSMSASH
